# Source: patent US20230210735A1, “PREVENTION, REDUCTION, OR AMELIORATION OF OLD PERSON SMELL” (Firmenich SA, priority 2020, published 2023)
# Experiment: Sensory evaluation of rancidity in ranch salad dressing
# Settings: grade 1-5
structure (smiles),measurement,setting,value
CCCCCCCCCCN(C)C.O=C(O)C(=O)Cc1ccccc1 [DiMeC10A-PhPA],Average rancidity of treated oil,50 mins since addition,1
same,Average rancidity of treated oil,6 hrs since addition,1
same,Average rancidity of treated oil,26 hrs since addition,1.5
